Structures can show the parent of a compound that is named as a salt. Where two headings read alike, the source gives them in different places.
Columns and labels:
[1] = tested on: HCT-8/WT(PTX) cells; assay: MTS cytotoxicity (drug tolerance) assay; details: cytotoxicity curve
Procedure: (§1) Host cell drug tolerance to specified inhibitors was evaluated by 3-(4,5-dimethylthiazol-2-yl)-5-(3-carboxymethoxyphenyl)-2-(4-sulfophenyl)-2H-tetrazolium (MTS) assay. WT and transgenic host cells were seeded in 96-well plates (10,000 cells/well) and cultured for 24 h, followed by the addition of specified compounds at serially diluted concentrations and continued culture for 41 h. After 3 washes with serum-free medium, MTS solution (Saint-Bio, Shanghai, China) was added into the plates (20 μL/well) and incubated at 37°C for 2 h. Optical density at 490 nm (OD490) was measured using a Synergy LX multi-mode reader (BioTek, Winooski, VT). Drug tolerance was indicated by half-maximal cytotoxic concentrations (TC50 values) calculated by nonlinear regression using 4PL model. Selectivity index (SI) for each compound was determined by the ratio between TC50 and EC50 values (SI = TC50/EC50).
(§2) Surviving cells were allowed to recover in drug-free medium for 3–5 d to near confluence (round 1). The selection/recovery cycle were repeated once (round 2). […] The resulting cell lines after PTX or NTZ selection were designated as WT(PTX), NC(PTX) and MDR1(PTX), or WT(NTZ), NC(NTZ) and MDR1(NTZ), respectively (Tables 1 and S2).

[2] = tested on: HCT-8/NC(PTX) cells; assay: MTS cytotoxicity (drug tolerance) assay; details: cytotoxicity curve
Procedure: as §1, §2

[3] = tested on: HCT-8/MDR1(NTZ) cells; assay: MTS cytotoxicity (drug tolerance) assay; details: for Hill slope (h): cytotoxicity curve, MDR1(NTZ) cells
Procedure: as §1, §2

[4] = tested on: HCT-8/NC(NTZ) cells; assay: MTS cytotoxicity (drug tolerance) assay; details: cytotoxicity curve
Procedure: as §1
(§3) Surviving cells were allowed to recover in drug-free medium for 3–5 d to near confluence (round 1). The selection/recovery cycle were repeated once (round 2). […] Finally, all cells were cultured at the final selection concentrations of PTX or NTZ for ≥7 d, followed by culture in drug-free medium for 14 d. At this time point, cells were used for cytotoxicity and efficacy assays or cryopreserved in a liquid nitrogen tank. The resulting cell lines after PTX or NTZ selection were designated as WT(PTX), NC(PTX) and MDR1(PTX), or WT(NTZ), NC(NTZ) and MDR1(NTZ), respectively (Tables 1 and S2).

[5] = tested on: HCT-8/WT cells; assay: MTS cytotoxicity (drug tolerance) assay; details: cytotoxicity curve
Procedure: as §1

[6] = tested on: HCT-8/NC cells; assay: MTS cytotoxicity (drug tolerance) assay; details: cytotoxicity curve
[7] = tested on: HCT-8/MDR1 cells; assay: MTS cytotoxicity (drug tolerance) assay; details: for Hill slope (h): cytotoxicity curve, MDR1 cells
[8] = tested on: HCT-8/MDR1(PTX) cells; details: for Hill slope (h): cytotoxicity curve, MDR1(PTX) cells
Procedure: as §1, §2

[9] = tested on: Cryptosporidium parvum; assay: Anti-cryptosporidial efficacy assay (44-h infection/qRT-PCR); details: for Hill slope (h): efficacy curve
[10] = tested on: HCT-8/WT(NTZ) cells; assay: MTS cytotoxicity (drug tolerance) assay; details: cytotoxicity curve
Procedure: as §1, §3

Molecule	Hill slope (h) [1]	Hill slope (h) [2]	Increased tolerance in MDR1(NTZ) cells? [3]	Hill slope (h) [3]	Hill slope (h) [4]	Hill slope (h) [5]	Hill slope (h) [6]	Increased tolerance in MDR1 cells (vs. NC)? [7]	Increased tolerance in MDR1(PTX) cells? [8]	Hill slope (h) [8]	Hill slope (h) [7]	also measured
COc1cccc2c1C(=O)c1c(O)c3c(c(O)c1C2=O)C[C@@](O)(C(=O)CO)C[C@@H]3O[C@H]1C[C@H](N)[C@H](O)[C@H](C)O1 [Doxorubicin, Doxorubicin HCl]	1.14	1.18	No	1.03	1.09	1.11	1.10	Yes	Yes	1.16		
CC[C@]1(O)C[C@H]2CN(CCc3c([nH]c4ccccc34)[C@@](C(=O)OC)(c3cc4c(cc3OC)N(C=O)[C@H]3[C@@](O)(C(=O)OC)[C@H](OC(C)=O)[C@]5(CC)C=CCN6CC[C@]43[C@@H]65)C2)C1 [Vincristine, Vincristine sulphate]			No	1.04	1.09	1.05	1.07	Yes	Yes	1.10	1.24	
COc1cccc2c1C(=O)c1c(O)c3c(c(O)c1C2=O)C[C@@](O)(C(C)=O)C[C@@H]3O[C@H]1C[C@H](N)[C@H](O)[C@H](C)O1 [Daunorubicin, Daunorubicin HCl]			No					No	Yes			Ratio of TC50 MDR1(NTZ)/NC(NTZ) [3]: 1.02
CC(=O)Oc1ccccc1C(=O)Nc1ncc([N+](=O)[O-])s1 [Nitazoxanide]	1.05	1.06	Yes		1.02	1.12	1.07	No	No	1.03	1.11	Pct change of EC50 (vs NC) ([9]; MDR1(NTZ) vs NC host cells): -3.6%; Hill slope (h) ([9]; MDR1(NTZ) host cells): 1.12; Increased tolerance in MDR1 cells (vs. NC)? ([7]; listed as NTZ): no change of tolerance
Ivermectin												Pct change of EC50 (vs NC) ([9]; MDR1(PTX) vs NC host cells): 31.6%; Hill slope (h) ([9]; MDR1(PTX) host cells): 1.06; Hill slope (h) ([9]; NC host cells): 1.09; Hill slope (h), mean values ([9]; mean of h of efficacy and cytotoxicity assays (S6 Table), h used in Fig 11B): 1.120; Hill slope (h) [10]: 1.02
CC(=O)O[C@H]1C(=O)[C@@]2(C)[C@H]([C@H](OC(=O)c3ccccc3)[C@]3(O)C[C@H](OC(=O)[C@H](O)[C@@H](NC(=O)c4ccccc4)c4ccccc4)C(C)=C1C3(C)C)[C@]1(OC(C)=O)CO[C@@H]1C[C@@H]2O [Paclitaxel]	1.10	1.09	No	1.06		1.02	1.05	Yes	Yes	1.07	1.09	
O=C1c2c(O)ccc(O)c2C(=O)c2c(NCCNCCO)ccc(NCCNCCO)c21 [Mitoxantrone, Mitoxantrone 2HCl]	1.01	1.01	No	1.02	1.01	1.04	1.05	Yes	Yes	1.02	1.10	Ratio of TC50 MDR1(NTZ)/NC(NTZ) [3]: 1.61; Ratio of SI MDR1(PTX) vs NC [9]: 1.34; Ratio of EC50 MDR1(PTX) vs NC ([9]; host cells MDR1(PTX) vs NC): 2.04
CN(C)C(=O)C(CCN1CCC(O)(c2ccc(Cl)cc2)CC1)(c1ccccc1)c1ccccc1 [Loperamide, Loperamide HCl]			No					No	No			

Reference: paper PMC10079235 (PLOS Neglected Tropical Diseases, 2023)
